Source: patent US20050148838A1, “Pharmaceutical discovery and development” (priority 2002, published 2005)

Experiment: Coulometric EC-MS (voltammetric mass spectrometry), Phase I type EC oxidation
Type: physicochemical
Conditions: for Mass Shift: product ion vs parent after EC oxidation, FIA, 50% aqueous methanol, 0.1 ml/min
Text: Referring to FIG. 1A, a Model 1100 LC/MSD single quadrupole mass spectrometer 10 (Agilent Technologies, Palo Alto, Calif., USA) was used in combination with a Coulochem® III ECD 12 and Model 5021 coulometric cell 14 (ESA Inc., Chelmsford, Mass., USA).
Compounds are characterized via automated sequences, in which EC potential is changed from, e.g., 0-1200 mV(vs. Pd) in increments of, e.g., 200 mV. EC current and MS ion abundance at specific mass-to-charge ratios (m/z) is monitored. In accordance with the present invention, EC (e.g., coulometric, or amperometric) and reaction product profiles for various drug candidates can be obtained reproducibly. Peak area for parent compounds is inversely proportional to EC response with concomitant formation of reaction products.

SMILES | Mass Shift | O-dealkylation by EC oxidation
C[C@]12CC[C@@H]3c4cc(O)c(O)cc4CC[C@H]3[C@@H]1CC[C@@H]2O [2-Hydroxyestradiol] | −2 | –
CCOc1ccc2ccc(=O)oc2c1 [7-Ethoxycoumarin] | – | not observed
N[C@@H](CCS)C(=O)O [Homocysteine] | +16 | –
COc1c(O)ccc2c1CC[C@@H]1[C@@H]2CC[C@]2(C)[C@@H](O)CC[C@@H]12 [4-Methoxyestradiol] | −16 | –
CN(C)CCCN1c2ccccc2CCc2ccccc21 [Imipramine] | −14 | –
COc1cc2c(cc1O)CC[C@@H]1[C@@H]2CC[C@]2(C)[C@@H](O)CC[C@@H]12 [2-Methoxyestradiol] | −16 | –
C[C@]12CC[C@@H]3c4ccc(O)c(O)c4CC[C@H]3[C@@H]1CC[C@@H]2O [4-Hydroxyestradiol] | −2 | –
CC(C)NCC(O)COc1cccc2ccccc12 (stereo not shown) [Propranolol] | −42 | –
CCCCN1C[C@H](O)[C@@H](O)[C@H](O)[C@H]1CO [N-butyldeoxynojirimycin] | +16 | –
CSCC[C@H](N)C(=O)O [Methionine] | +16 | –
